# Experimental data published in the supplement of paper PMC8728848.
# This is one part of the list.
# Key:
# Test in all cases: glycan array binding signal (z-score within array); higher = stronger binding
# Conditions in all cases: glycan notation: IUPAC condensed, linker removed; mutation: D21K
# [1] = molecular target: Fuc(a1-2)Gal(b1-4)GlcNAc(b1-3)Gal(b1-4)GlcNAc(b1-2)Man(a1-3)[Fuc(a1-2)Gal(b1-4)GlcNAc(b1-3)Gal(b1-4)GlcNAc(b1-2)Man(a1-6)]Man(b1-4)GlcNAc(b1-4)GlcNAc
# Summary of the method: (§1)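 The binding signal is a Z-score computed within each array. Data were drawn from 3228 arrays in the Consortium for Functional Glycomics database, restricted to those with a known protein sequence. Scores were averaged over arrays of the same protein sequence at different concentrations or buffers, and over linkers, and negative values can be taken as non-binding.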
# [2] = molecular target: Fuc(a1-2)Gal(b1-4)GlcNAc(b1-3)Gal(b1-4)GlcNAc(b1-3)Gal(b1-4)GlcNAc
# Summary of the method: as §1
# [3] = molecular target: Fuc(a1-2)Gal(b1-4)GlcNAc(b1-3)GalNAc
# Summary of the method: as §1
# [4] = molecular target: Fuc(a1-2)Gal(b1-4)GlcNAc(b1-3)[Fuc(a1-2)Gal(b1-4)GlcNAc(b1-6)]GalNAc
# Summary of the method: as §1
# [5] = molecular target: Fuc(a1-2)Gal(b1-4)GlcNAc(b1-3)[Fuc(a1-3)[Gal(b1-4)]GlcNAc(b1-6)]Gal(b1-4)Glc
# Summary of the method: as §1
# [6] = molecular target: Fuc(a1-2)Gal(b1-4)GlcNAc(b1-6)GalNAc
# Summary of the method: as §1
# [7] = molecular target: Fuc(a1-2)Gal(b1-4)GlcNAc6S
# Summary of the method: as §1
# [8] = molecular target: Fuc(a1-2)Gal(b1-4)[Fuc(a1-3)]GlcNAc
# Summary of the method: as §1
# [9] = molecular target: Fuc(a1-2)Gal(b1-4)[Fuc(a1-3)]GlcNAc(b1-2)Man(a1-3)[Fuc(a1-2)Gal(b1-4)[Fuc(a1-3)]GlcNAc(b1-2)Man(a1-6)]Man(b1-4)GlcNAc(b1-4)[Fuc(a1-6)]GlcNAc
# Summary of the method: as §1
# [10] = molecular target: Fuc(a1-2)Gal(b1-4)[Fuc(a1-3)]GlcNAc(b1-2)[Fuc(a1-2)Gal(b1-4)[Fuc(a1-3)]GlcNAc(b1-4)]Man(a1-3)[Fuc(a1-2)Gal(b1-4)[Fuc(a1-3)]GlcNAc(b1-2)Man(a1-6)]Man(b1-4)GlcNAc(b1-4)GlcNAc
# Summary of the method: as §1
# [11] = molecular target: Fuc(a1-2)Gal(b1-4)[Fuc(a1-3)]GlcNAc(b1-3)Gal(b1-4)[Fuc(a1-3)]GlcNAc
# Summary of the method: as §1
# [12] = molecular target: Fuc(a1-2)Gal(b1-4)[Fuc(a1-3)]GlcNAc(b1-3)Gal(b1-4)[Fuc(a1-3)]GlcNAc(b1-3)Gal(b1-4)[Fuc(a1-3)]GlcNAc
# Summary of the method: as §1
# [13] = molecular target: Fuc(a1-2)Gal(b1-4)[Fuc(a1-3)]GlcNAc(b1-3)GalNAc
# Summary of the method: as §1
# [14] = molecular target: Fuc(a1-2)Gal(b1-4)[Fuc(a1-3)]GlcNAc(b1-3)[Neu5Ac(a2-6)Gal(b1-4)GlcNAc(b1-6)]Gal(b1-4)Glc
# Summary of the method: as §1
# [15] = molecular target: Fuc(a1-2)Gal3S(b1-4)GlcNAc
# Summary of the method: as §1
# [16] = molecular target: Fuc(a1-2)Gal6S(b1-3)GlcNAc
# Summary of the method: as §1
# [17] = molecular target: Fuc(a1-2)Gal6S(b1-3)GlcNAc6S
# Summary of the method: as §1
# Fuc(a1-2)Gal6S(b1-4)Glc = molecular target: Fuc(a1-2)Gal6S(b1-4)Glc
# Summary of the method: as §1
# [18] = molecular target: Fuc(a1-2)Gal6S(b1-4)Glc6S
# Summary of the method: as §1
# Fuc(a1-2)[Gal(a1-3)]Gal = molecular target: Fuc(a1-2)[Gal(a1-3)]Gal
# Summary of the method: as §1
# [19] = molecular target: Fuc(a1-2)[Gal(a1-3)]Gal(b1-3)GalNAc
# Summary of the method: as §1
# [20] = molecular target: Fuc(a1-2)[Gal(a1-3)]Gal(b1-3)GalNAc(b1-3)Gal(a1-4)Gal(b1-4)Glc
# Summary of the method: as §1
# [21] = molecular target: Fuc(a1-2)[Gal(a1-3)]Gal(b1-3)GlcNAc
# Summary of the method: as §1
# [22] = molecular target: Fuc(a1-2)[Gal(a1-3)]Gal(b1-3)GlcNAc(b1-2)Man(a1-3)[Fuc(a1-2)[Gal(a1-3)]Gal(b1-3)GlcNAc(b1-2)Man(a1-6)]Man(b1-4)GlcNAc(b1-4)GlcNAc
# Summary of the method: as §1
# [23] = molecular target: Fuc(a1-2)[Gal(a1-3)]Gal(b1-3)GlcNAc(b1-2)Man(a1-3)[Fuc(a1-2)[Gal(a1-3)]Gal(b1-3)GlcNAc(b1-2)Man(a1-6)]Man(b1-4)GlcNAc(b1-4)[Fuc(a1-6)]GlcNAc
# Summary of the method: as §1
# [24] = molecular target: Fuc(a1-2)[Gal(a1-3)]Gal(b1-3)GlcNAc(b1-3)GalNAc
# Summary of the method: as §1
# [25] = molecular target: Fuc(a1-2)[Gal(a1-3)]Gal(b1-3)GlcNAc(b1-6)GalNAc
# Summary of the method: as §1
# [26] = molecular target: Fuc(a1-2)[Gal(a1-3)]Gal(b1-4)Glc
# Summary of the method: as §1
# [27] = molecular target: Fuc(a1-2)[Gal(a1-3)]Gal(b1-4)GlcNAc
# Summary of the method: as §1
# [28] = molecular target: Fuc(a1-2)[Gal(a1-3)]Gal(b1-4)GlcNAc(b1-2)Man
# Summary of the method: as §1
binder,measurement,setting,value
KILRGVCKKIMRTFLRRISKKILTGKK [C7A (Sus scrofa)],glycan array binding signal (z-score),[1],0.536
same,glycan array binding signal (z-score),[2],1.2
same,glycan array binding signal (z-score),[3],0.98
same,glycan array binding signal (z-score),[4],0.75
same,glycan array binding signal (z-score),[5],-0.99
same,glycan array binding signal (z-score),[6],-0.597
same,glycan array binding signal (z-score),[7],0.072
same,glycan array binding signal (z-score),[8],-1.12
same,glycan array binding signal (z-score),[9],-0.252
same,glycan array binding signal (z-score),[10],0.494
same,glycan array binding signal (z-score),[11],-1.58
same,glycan array binding signal (z-score),[12],-0.735
same,glycan array binding signal (z-score),[13],0.148
same,glycan array binding signal (z-score),[14],0.652
same,glycan array binding signal (z-score),[15],-1.47
same,glycan array binding signal (z-score),[16],0.866
same,glycan array binding signal (z-score),[17],1.91
same,glycan array binding signal (z-score),Fuc(a1-2)Gal6S(b1-4)Glc,-0.829
same,glycan array binding signal (z-score),[18],1.15
same,glycan array binding signal (z-score),Fuc(a1-2)[Gal(a1-3)]Gal,0.73
same,glycan array binding signal (z-score),[19],-0.24
same,glycan array binding signal (z-score),[20],0.004
same,glycan array binding signal (z-score),[21],-0.689
same,glycan array binding signal (z-score),[22],-0.537
same,glycan array binding signal (z-score),[23],0.82
same,glycan array binding signal (z-score),[24],-0.507
same,glycan array binding signal (z-score),[25],1.37
same,glycan array binding signal (z-score),[26],0.215
same,glycan array binding signal (z-score),[27],0.504
same,glycan array binding signal (z-score),[28],-1.8

# A second format for part of the listing above.
binder | measurement | setting | value
KILRGVCKKIMRTFLRRISKKILTGKK [C7A (Sus scrofa)] | glycan array binding signal (z-score) | [2] | 1.2
same | glycan array binding signal (z-score) | [24] | -0.507
